Here are results for one substance from publication PMC4967826, “Combined structural, biochemical and cellular evidence demonstrates that both FGDF motifs in alphavirus nsP3 are required for efficient replication” (Open Biology, 2016).

By UniProt entry, the sequences of proteins in these tests, tags left out.
UniProt Q13283: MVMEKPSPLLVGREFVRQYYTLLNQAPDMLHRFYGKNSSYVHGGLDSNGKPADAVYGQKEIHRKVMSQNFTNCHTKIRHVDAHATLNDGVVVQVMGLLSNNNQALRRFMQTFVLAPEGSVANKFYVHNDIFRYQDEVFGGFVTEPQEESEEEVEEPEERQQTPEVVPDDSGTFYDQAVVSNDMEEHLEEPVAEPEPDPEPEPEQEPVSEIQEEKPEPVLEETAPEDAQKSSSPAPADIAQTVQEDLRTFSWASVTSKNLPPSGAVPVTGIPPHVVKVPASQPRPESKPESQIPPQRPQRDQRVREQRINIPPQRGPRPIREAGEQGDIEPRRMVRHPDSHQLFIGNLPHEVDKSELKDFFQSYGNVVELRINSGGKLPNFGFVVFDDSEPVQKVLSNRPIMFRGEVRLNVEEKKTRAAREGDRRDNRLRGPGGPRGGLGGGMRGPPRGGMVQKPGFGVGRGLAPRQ

The assay concerns the target EGFP fused with full-length CHIKV nsP3 (EGFP-nsP3CHIKV), WT (chikungunya virus (CHIKV LR2006-OPY1)) (UniProt Q5XXP4). The experiment in a line: co-IP.

Results are given in words; binding and its absence hold for the method and conditions named. In cells and extracts the contact can be indirect. A result given as binding can be weak or reduced; the word gives no strength.

As to “G3BP-1 (endogenous, HEK293 cells) (from UniProt Q13283 1-466)”, the binding result is on record as “binds”.
